Source: patent publication US20020119178A1 (priority 2001, published 2002)
Starred links: 1 amine or outer side, 2 acyl side, 3 side chain; linkers in the order of their positions; H or OH if unused. Positions of bridges follow the written chain, without caps; N, C: chain ends. Non-standard residues stand in square brackets, D forms with d. Residues, ends and D or L forms follow the SMILES beside them. Chains are numbered I, II in the order given. Actinocin(9to1) = Cc1c2oc3c(C)ccc(C(=O)[*:1])c3nc-2c(C(=O)[*:2])c(N)c1=O; NMeV = CN[C@H](C(=O)O)C(C)C; Sar = CNCC(=O)O

Settings: for amount of drug retained following two 5-minute washings: 10 μg tritiated actinomycin D on discs functionalized with the diazonium molecule
Description: In FIG. 1, the electrochemical cell 10 is a standard three-electrode setup. A saturated Calomel electrode (SCE) was used as the reference electrode 12 and the counter electrode 14 was a circular platinum foil (3 cm^2). A 316L stainless steel disk (0.8 cm^2 area) connected to a platinum wire 16 was used as the working electrode 18. The cell was filled with an aqueous electrodeposition solution composed of 5 mM sulfuric acid and 20 mM of an aryldiazonium-containing molecule as described in FIG. 2 for the cyclic voltammetry electrochemical process. The electrodeposition of the aryldiazonium onto the stainless steel device was applied using 2 consecutive cyclic scans ranging from −0.5 V to −1.75 V relatively to the SCE reference electrode. The current-voltage response was followed on a XY recorder. Following electrodeposition, the device was consecutively washed with water and acetonitrile to remove impurities.
FIG. 5 illustrates the necessity of the presence of a molecule containing a diazonium moiety to retain tritiated actinomycin D deposited on the surface of stainless steel 316L discs. In this experiment, stainless steel 316L discs, which are made out of the same material as the stainless steel stents and other endovascular devices, are either functionalized with 4-bromobenzenediazonium or left bare. The discs are then exposed to a solution containing 30 μg of tritiated actinomycin D whereas the solvent is acetonitrile or ethanol. Following dipping, the discs are left to dry at room temperature until the solvent evaporates. The discs are first washed in deionized water for 5 minutes followed by a 5-minute wash in a physiologic solution. The discs are then counted in a scintillation counter.
FIG. 6 illustrates the loading and retention capacity of tritiated actinomycin D immobilized as described previously onto stainless steel 316L discs, with the exception however that water was also used as solvent for immobilizing tritiated actinomycin D. Following immobilization, the discs were first washed for 5 minutes in deionized water followed by a 5-minute wash in a physiologic solution. The loading of tritiated actinomycin D onto the stainless steel discs varied according of the type of solvent used: acetonitrile>ethanol>water.
FIG. 7 illustrates the effect of varying concentrations of the 4-bromobenzenediazonium solution on the loading and retention of 30 μg of tritiated actinomycin D following 8 days of elution in a physiological medium. Stainless steel 316L discs were exposed to varying concentrations of 4-bromobenzenediazonium solution before electrodeposition with the set-up as described in FIG. 1. Actinomycin D loading in the ethanol solution increased 1.6 fold, from 4324±329 for 0.02 M to 7146±80 for 20 mM. However, the residual tritiated actinomycin D remaining on the discs following 8 days of elution was increased 7.3 fold when comparing the 0.02 mM 4-bromobenzenediazonium concentration (348±52) versus 20 mM (2539±43).
FIG. 8 illustrates the retention profiles of actinomycin D loaded onto a stainless steel disk with any one of the molecules having a diazonium moiety illustrated in FIG. 2.

SMILES | amount of drug retained following two 5-minute washings | increase of loading, 20 mM versus 0.02 M 4-bromobenzenediazonium (ethanol solution) | increase of residual drug after 8 days of elution, 20 mM versus 0.02 mM 4-bromobenzenediazonium (physiological medium)
CCOC(=O)c1cc2ccccc2cc1[N+]#N.F[B-](F)(F)F [molecule 2, 3-ethoxycarbonyl-naphtalene-2-diazonium tetrafluoroborate] | similar |  | 
CCCCCCCCCCOc1ccc([N+]#N)cc1.[Cl-] [molecule 1, 4-decycloxyphenyl diazonium chloride] | significantly lower |  | 
Cc1cc([N+]#N)c(Cl)cc1NC(=O)c1ccccc1.[Cl-] [molecule 4, 2-chloro-4-benzamido-5-methylbenzene diazonium chloride] | similar |  | 
F[B-](F)(F)F.N#[N+]c1cc(Cl)cc(Cl)c1 [molecule 3, 3-5-dichlorophenyl diazonium tetrafluoroborate] | similar |  | 
F[B-](F)(F)F.N#[N+]c1ccc(Br)cc1 [molecule 5, 4-bromobenzenediazonium tetrafluoroborate] | similar |  | 
Cc1c2oc3c(C)ccc(C(=O)N[C@@H]4C(=O)N[C@H](C(C)C)C(=O)N5CCC[C@H]5C(=O)N(C)CC(=O)N(C)[C@@H](C(C)C)C(=O)O[C@@H]4C)c3nc-2c(C(=O)N[C@@H]2C(=O)N[C@H](C(C)C)C(=O)N3CCC[C@H]3C(=O)N(C)CC(=O)N(C)[C@@H](C(C)C)C(=O)O[C@@H]2C)c(N)c1=O [actinomycin D] (I: T[dV]P[Sar][NMeV] / II: T[dV]P[Sar][NMeV]; ester I:1-I:C, II:1-II:C; linker I:N-II:N via Actinocin(9to1)) |  | 1.6 fold | 7.3 fold
